Reference: article PMC11300919
Results are given in words; binding and its absence hold for the method and conditions named. In cells and extracts the contact can be indirect.

Amino acid sequences for entries named in this document (tags omitted). Residues count along the entry.
UniProt P16056, residues 25-931: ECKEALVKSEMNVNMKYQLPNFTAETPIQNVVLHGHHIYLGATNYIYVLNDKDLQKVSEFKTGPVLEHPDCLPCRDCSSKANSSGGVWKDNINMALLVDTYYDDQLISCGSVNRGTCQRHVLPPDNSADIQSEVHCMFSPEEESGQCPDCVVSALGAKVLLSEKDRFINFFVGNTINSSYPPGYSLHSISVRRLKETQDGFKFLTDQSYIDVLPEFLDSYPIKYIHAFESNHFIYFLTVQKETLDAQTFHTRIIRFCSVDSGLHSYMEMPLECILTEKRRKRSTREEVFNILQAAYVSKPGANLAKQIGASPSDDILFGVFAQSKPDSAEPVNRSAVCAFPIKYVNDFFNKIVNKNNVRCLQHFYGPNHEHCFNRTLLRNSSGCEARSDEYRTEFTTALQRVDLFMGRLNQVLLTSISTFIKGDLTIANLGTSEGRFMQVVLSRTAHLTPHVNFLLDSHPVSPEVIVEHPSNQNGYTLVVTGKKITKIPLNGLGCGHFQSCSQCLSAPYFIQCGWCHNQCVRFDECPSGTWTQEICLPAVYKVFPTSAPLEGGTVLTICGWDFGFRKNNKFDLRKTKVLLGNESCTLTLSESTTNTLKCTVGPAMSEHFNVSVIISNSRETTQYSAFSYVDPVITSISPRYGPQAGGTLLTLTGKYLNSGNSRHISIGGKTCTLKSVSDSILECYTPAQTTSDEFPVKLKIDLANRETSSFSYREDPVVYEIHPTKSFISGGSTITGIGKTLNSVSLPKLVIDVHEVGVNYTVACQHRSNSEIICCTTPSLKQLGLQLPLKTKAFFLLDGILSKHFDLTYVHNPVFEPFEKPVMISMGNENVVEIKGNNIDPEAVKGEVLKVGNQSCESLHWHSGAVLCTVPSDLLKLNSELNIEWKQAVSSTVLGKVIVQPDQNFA

Molecular target: soluble ectodomain fragment of mouse Met (residues 1-931) C-terminally fused with PA-tag (mouse) (UniProt P16056)
Assay: pull-down; mouse Met ectodomain (1-931)-PA captured on beads with anti-PA antibody NZ-1, briefly washed; incubated with culture supernatants containing peptide-grafted Fc variants; elution with SDS buffer, SDS-PAGE, band intensity; only the target purified

- binding: no binding
Substance: control Fc protein (from UniProt P01857 104-330) (domain or fragment)
